Literature values, collected in US20060100210A1, “Methods for treatment of scleroderma” (priority 2001, published 2006).
At least one structure is not confirmed: it was looked up by name or label, or the drawing left a doubt.

Details: small study; cited from earlier work

For CN(C)c1ccc(O)c2c1C[C@H]1C[C@H]3[C@H](N(C)C)C(O)=C(C(N)=O)C(=O)[C@@]3(O)C(O)=C1C2=O [minocycline], which “patients with gradual and progressive improvement in symptoms” value is on record?
The value was “four out of six”.
